In PMC11146434 one finds binding signal (% of signal without NF242) data, which are given here for one sequence.

By UniProt entry, the sequences of proteins in these tests, tags left out. Residues count along the entry.
UniProt Q13148, 1-269: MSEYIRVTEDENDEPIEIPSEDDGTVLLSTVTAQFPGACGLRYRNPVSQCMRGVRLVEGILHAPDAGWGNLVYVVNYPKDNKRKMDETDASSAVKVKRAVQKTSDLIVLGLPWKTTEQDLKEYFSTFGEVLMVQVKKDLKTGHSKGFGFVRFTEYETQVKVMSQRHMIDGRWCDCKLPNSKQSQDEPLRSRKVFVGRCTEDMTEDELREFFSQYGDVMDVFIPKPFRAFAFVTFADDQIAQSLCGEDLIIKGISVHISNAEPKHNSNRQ

In the series the target is His-TDP-43 1-269 (human) (UniProt Q13148). In words: SPR competition. To be noted: 10 mM Tris pH 8.0, 150 mM NaCl, 2 mM MgCl2, 0.05% Tween-20, 1 uM BSA, 30 min pre-incubation at room temperature, SPR at 22 C (stated for the protein-protein SPR), recombinant protein, residues 1-269, protein details: N-terminal 6xHis (pQE30), label: 3' biotin.

The exact form of at least one protein or probe is not confirmed. Whether high values mean tight binding is not given here for every scale.

With “GUGUGUGAAUGAAUAAA [3'-biotinylated RNA oligo]”, the binding signal (% of signal without NF242) (100 nM TDP-43 1-269 pre-incubated with 1 uM His-MBP-RGNEF 1-275 (NF242), ~10% reduction) came out at 90 and the binding signal (% of signal without NF242) (100 nM TDP-43 1-269 pre-incubated with 10 uM His-MBP-RGNEF 1-275 (NF242), ~50% reduction) came to 50.
